Measured data: PubChem BioAssay AID1671195 (Yale University, 2021)
Here is an unselected part of about 22,000 reagents tested. Over the whole deposit, about 1,510 (6.9%) got an active call. 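Active includes knockdowns raising or lowering LDL uptake; positive z-scores mean more uptake, negative mean less.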 Unmarked entries are inactive. No sequences are given here.

Purpose: 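Regulators of LDL receptor activity judged by labelled LDL uptake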 (primary screen)
System: human Huh7 hepatoma cells
Reagent: siRNA pool against human genes, 18 nM
Time to read-out: about 2 to 2.5 days of knockdown, then 8 h LDL uptake
Conditions: DiI-labelled LDL at 30 µg/ml for 8 h, in lipoprotein-deficient serum medium
Detection: 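Per-cell DiI-LDL intensity by automated imaging; well means scaled to the plate median and given as a robust z-score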
Scale: robust z-score: higher = more LDL uptake after knockdown
Call rule: 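Active when two or more replicates show a robust z-score above 2 or below -2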

target,"robust z-score, replicate 1","robust z-score, replicate 2","robust z-score, replicate 3"
OTOA (otoancorin),1.28,0.714,0.97
COPS2 (COP9 signalosome subunit 2),-1.23,-1.2,-1.58
KHNYN (KH and NYN domain containing),-0.647,1.51,-1.61
ATG14 (autophagy related 14),1.17,0.841,1.11
HAVCR1 (hepatitis A virus cellular receptor 1),0.0756,-0.03,0.805
PLA2G2E (phospholipase A2 group IIE),0.243,0.103,0.366
CHKB (choline kinase beta),0.411,0.206,-0.579
STRA6 (signaling receptor and transporter of retinol STRA6),2.38 (active),1.52,2.17
CLLU1 (chronic lymphocytic leukemia up-regulated 1),3.41,3.03,2.54
NHERF1 (NHERF family PDZ scaffold protein 1),1.48,0.44,1.25
UBE2G2 (ubiquitin conjugating enzyme E2 G2),1.61,0.0302,0.978
BCS1L (BCS1 ubiquinol-cytochrome c reductase complex chaperone),2.81 (active),1.82,2.64
"PLEKHH3 (pleckstrin homology, MyTH4 and FERM domain containing H3)",-0.902,-0.102,-0.431
OR2L13 (olfactory receptor family 2 subfamily L member 13),-1.4,-1.26,-1.34
CNKSR1 (connector enhancer of kinase suppressor of Ras 1),0.551,0.00817,0.255
TUBB2B (tubulin beta 2B class IIb),-0.0741,0.952,0.536
LINC01019 (long independently transcribed non-coding RNA 1019),-0.91,-0.833,-0.975
TRIM47 (tripartite motif containing 47),3.01 (active),3.26,4.86
DNM1P5 (dynamin 1 pseudogene 5),-0.529,-3.32,-0.638
LOC221140 (retired record),3.57 (active),2.64,3.31
LOC387706 (retired record),-1.02,-0.997,-1.01
RGS17 (regulator of G protein signaling 17),-0.862,-1.42,-1.18
AVPR2 (arginine vasopressin receptor 2),0.126,-0.884,-0.513
INTS15 (integrator complex subunit 15),2.26 (active),1.93,2.9
LBX1 (ladybird homeobox 1),-1.47,-1.31,-1.09
ZSCAN32 (zinc finger and SCAN domain containing 32),0.505,0.218,0.826
CDKN3 (cyclin dependent kinase inhibitor 3),0.499,1.29,0.905
TPMT (thiopurine S-methyltransferase),-1.58,-1.94,-1.7
LOC285435 (retired record),-0.748,-0.684,-0.788
ESPNL (espin like),0.242,0.376,0.0552
TMEM243 (transmembrane protein 243),-0.898,-0.783,-0.572
KIFAP3 (kinesin associated protein 3),0.1,0.64,0.223
LOC440493 (retired record),1.94,1.59,2.12
ELF3 (E74 like ETS transcription factor 3),-0.831,0.0328,-0.0882
POLR3B (RNA polymerase III subunit B),-0.582,-0.802,-0.56
LINC01239 (long independently transcribed non-coding RNA 1239),0.44,0.329,0.529
THEM6 (thioesterase superfamily member 6),-0.621,-1.42,-0.0516
ZNF687 (zinc finger protein 687),-0.713,-1.13,-0.692
"PLAU (plasminogen activator, urokinase)",-1.07,-0.889,-0.849
WDR4,-0.815,-1.31,-1.64
SKOR1 (SKI family transcriptional corepressor 1),1.84,0.893,0.493
RAPGEF6 (Rap guanine nucleotide exchange factor 6),1.72,1.34,1.97
PHLDA1 (pleckstrin homology like domain family A member 1),0.643,0.674,0.491
NSG2 (neuronal vesicle trafficking associated 2),-1.95,-1.99,-1.12
TRIAP1 (TP53 regulated inhibitor of apoptosis 1),0.243,1.27,-0.545
DEFB118 (defensin beta 118),0.212,1.06,0.573
LRRC43 (leucine rich repeat containing 43),-0.662,-0.218,-0.0856
SUV39H2 (SUV39H2 histone lysine methyltransferase),0.813,0.134,0.685
LOC391030 (retired record),-0.497,-0.581,-0.343
LINC02880 (long independently transcribed non-coding RNA 2880),-1.57,-1.43,-1.45
ABT1 (activator of basal transcription 1),0.141,0.247,-1.06
RNASEH2B (ribonuclease H2 subunit B),0.562,0.657,0.981
ARMC6 (armadillo repeat containing 6),-1.11,-0.444,-0.544
CEBPE (CCAAT enhancer binding protein epsilon),1.31,0.745,4.47
VPREB3 (V-set pre-B cell surrogate light chain 3),-1.06,-1.05,-1.65
TAS1R3 (taste 1 receptor member 3),-1.26,-1.29,-1.66
ANKRD45 (ankyrin repeat domain 45),-0.605,-0.569,-0.67
LINC-PINT,0.683,0.196,0.0775
SLC44A4,-1.78,-1.51,-1.35
C6orf120 (chromosome 6 open reading frame 120),1.31,1.51,1.03
OR5B3 (olfactory receptor family 5 subfamily B member 3),0.194,0.255,0.406
HPS4 (HPS4 biogenesis of lysosomal organelles complex 3 subunit 2),0.512,1.36,0.871
UGT3A2 (UDP glycosyltransferase family 3 member A2),0.859,0.453,2.64
ITGAE (integrin subunit alpha E),0.984,-0.508,-0.772
BABAM2 (BRISC and BRCA1 A complex member 2),-1.27,0.134,-1.08
GAL3ST3 (galactose-3-O-sulfotransferase 3),-2.66 (active),-2.68,-2.67
POU2AF3 (POU class 2 homeobox associating factor 3),-0.196,-0.211,-1.08
HIPK1 (homeodomain interacting protein kinase 1),-0.302,-1.02,-0.573

Called active, among the entries above:
target,"robust z-score, replicate 1","robust z-score, replicate 2","robust z-score, replicate 3"
STRA6 (signaling receptor and transporter of retinol STRA6),2.38 (active),1.52,2.17
BCS1L (BCS1 ubiquinol-cytochrome c reductase complex chaperone),2.81 (active),1.82,2.64
TRIM47 (tripartite motif containing 47),3.01 (active),3.26,4.86
LOC221140 (retired record),3.57 (active),2.64,3.31
INTS15 (integrator complex subunit 15),2.26 (active),1.93,2.9
GAL3ST3 (galactose-3-O-sulfotransferase 3),-2.66 (active),-2.68,-2.67
